Results: the supplement of paper PMC6411743
± gives the standard deviation of the averaged measurements. This is a selection; strong and weak results do not stand in their true shares.

Legend:
Test in all cases: NP40-soluble protein abundance relative to vehicle (solubility fold change) (ratio); higher = more soluble protein in presence of AMP-PNP
ARHGAP1 = biological target: T1, ARHGAP1 (UniProt Q07960)
T1 sequence (whole entry): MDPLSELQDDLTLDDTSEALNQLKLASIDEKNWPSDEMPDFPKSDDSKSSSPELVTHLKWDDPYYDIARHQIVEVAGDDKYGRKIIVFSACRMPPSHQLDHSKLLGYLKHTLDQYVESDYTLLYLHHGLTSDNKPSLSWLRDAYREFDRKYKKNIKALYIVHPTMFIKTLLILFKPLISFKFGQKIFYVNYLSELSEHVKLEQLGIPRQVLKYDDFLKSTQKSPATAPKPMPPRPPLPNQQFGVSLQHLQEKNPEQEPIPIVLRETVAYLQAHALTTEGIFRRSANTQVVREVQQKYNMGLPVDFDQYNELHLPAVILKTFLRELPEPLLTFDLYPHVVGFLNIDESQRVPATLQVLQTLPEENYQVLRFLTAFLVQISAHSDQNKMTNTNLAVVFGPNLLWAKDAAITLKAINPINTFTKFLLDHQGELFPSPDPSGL
Outline: (§1)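 Data come from three independent experiments in which Dounce-homogenised Jurkat crude lysate was treated at eight concentrations from 0.1 to 10 mM. Treatment ran 10 min at room temperature and then 3 min at 37 °C, after which 0.8% NP40 and benzonase were added for 60 min at 4 °C before ultracentrifugation. The supernatant underwent TMT labelling and LC-MS/MS, and vsn-normalised intensities were expressed as fold change against the detergent-processed vehicle in each replicate.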

DR1 = biological target: T2, DR1 (UniProt Q01658)
T2 sequence (whole entry): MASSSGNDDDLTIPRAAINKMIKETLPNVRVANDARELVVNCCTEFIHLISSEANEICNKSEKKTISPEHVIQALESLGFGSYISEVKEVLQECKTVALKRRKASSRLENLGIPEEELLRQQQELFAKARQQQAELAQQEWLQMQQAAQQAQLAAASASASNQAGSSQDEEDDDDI
Outline: as §1

EIF4G2 = biological target: T3, EIF4G2 (UniProt P78344)
T3 sequence (whole entry): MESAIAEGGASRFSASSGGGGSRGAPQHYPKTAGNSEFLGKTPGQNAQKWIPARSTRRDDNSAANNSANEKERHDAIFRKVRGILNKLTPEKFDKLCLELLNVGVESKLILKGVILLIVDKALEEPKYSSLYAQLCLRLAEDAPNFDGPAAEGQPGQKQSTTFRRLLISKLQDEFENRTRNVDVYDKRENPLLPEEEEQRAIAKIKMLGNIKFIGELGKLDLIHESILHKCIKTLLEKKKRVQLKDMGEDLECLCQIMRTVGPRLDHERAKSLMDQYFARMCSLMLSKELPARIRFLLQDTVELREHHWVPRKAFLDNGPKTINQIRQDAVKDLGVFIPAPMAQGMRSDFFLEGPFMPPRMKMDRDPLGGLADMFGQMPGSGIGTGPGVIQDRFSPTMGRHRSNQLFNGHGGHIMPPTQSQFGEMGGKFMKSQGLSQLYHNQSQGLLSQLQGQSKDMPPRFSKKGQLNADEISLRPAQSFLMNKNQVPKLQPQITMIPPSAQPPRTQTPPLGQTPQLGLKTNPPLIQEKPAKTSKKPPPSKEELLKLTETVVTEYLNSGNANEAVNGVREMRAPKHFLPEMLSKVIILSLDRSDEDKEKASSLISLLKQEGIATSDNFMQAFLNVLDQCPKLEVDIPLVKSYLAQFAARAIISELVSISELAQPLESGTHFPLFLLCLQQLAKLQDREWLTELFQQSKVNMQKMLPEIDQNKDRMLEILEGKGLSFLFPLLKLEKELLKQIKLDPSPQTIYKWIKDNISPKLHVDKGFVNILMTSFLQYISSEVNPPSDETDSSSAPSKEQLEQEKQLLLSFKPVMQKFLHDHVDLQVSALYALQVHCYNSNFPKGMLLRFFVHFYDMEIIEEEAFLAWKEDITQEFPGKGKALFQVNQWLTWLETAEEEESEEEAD
Outline: as §1

PURA = biological target: T4, PURA (UniProt Q00577)
T4 sequence (whole entry): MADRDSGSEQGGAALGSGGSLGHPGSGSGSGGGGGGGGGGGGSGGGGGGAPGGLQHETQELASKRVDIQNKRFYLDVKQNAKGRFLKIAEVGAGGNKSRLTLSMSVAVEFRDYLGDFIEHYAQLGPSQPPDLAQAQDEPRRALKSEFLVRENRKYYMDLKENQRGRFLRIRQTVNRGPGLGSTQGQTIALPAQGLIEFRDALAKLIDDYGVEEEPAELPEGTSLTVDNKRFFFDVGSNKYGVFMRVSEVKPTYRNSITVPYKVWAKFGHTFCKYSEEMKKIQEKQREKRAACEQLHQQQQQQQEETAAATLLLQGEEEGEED
Outline: as §1

[1] = biological target: T5, UniProt Q01804 and related entries
T5 sequence (whole entry): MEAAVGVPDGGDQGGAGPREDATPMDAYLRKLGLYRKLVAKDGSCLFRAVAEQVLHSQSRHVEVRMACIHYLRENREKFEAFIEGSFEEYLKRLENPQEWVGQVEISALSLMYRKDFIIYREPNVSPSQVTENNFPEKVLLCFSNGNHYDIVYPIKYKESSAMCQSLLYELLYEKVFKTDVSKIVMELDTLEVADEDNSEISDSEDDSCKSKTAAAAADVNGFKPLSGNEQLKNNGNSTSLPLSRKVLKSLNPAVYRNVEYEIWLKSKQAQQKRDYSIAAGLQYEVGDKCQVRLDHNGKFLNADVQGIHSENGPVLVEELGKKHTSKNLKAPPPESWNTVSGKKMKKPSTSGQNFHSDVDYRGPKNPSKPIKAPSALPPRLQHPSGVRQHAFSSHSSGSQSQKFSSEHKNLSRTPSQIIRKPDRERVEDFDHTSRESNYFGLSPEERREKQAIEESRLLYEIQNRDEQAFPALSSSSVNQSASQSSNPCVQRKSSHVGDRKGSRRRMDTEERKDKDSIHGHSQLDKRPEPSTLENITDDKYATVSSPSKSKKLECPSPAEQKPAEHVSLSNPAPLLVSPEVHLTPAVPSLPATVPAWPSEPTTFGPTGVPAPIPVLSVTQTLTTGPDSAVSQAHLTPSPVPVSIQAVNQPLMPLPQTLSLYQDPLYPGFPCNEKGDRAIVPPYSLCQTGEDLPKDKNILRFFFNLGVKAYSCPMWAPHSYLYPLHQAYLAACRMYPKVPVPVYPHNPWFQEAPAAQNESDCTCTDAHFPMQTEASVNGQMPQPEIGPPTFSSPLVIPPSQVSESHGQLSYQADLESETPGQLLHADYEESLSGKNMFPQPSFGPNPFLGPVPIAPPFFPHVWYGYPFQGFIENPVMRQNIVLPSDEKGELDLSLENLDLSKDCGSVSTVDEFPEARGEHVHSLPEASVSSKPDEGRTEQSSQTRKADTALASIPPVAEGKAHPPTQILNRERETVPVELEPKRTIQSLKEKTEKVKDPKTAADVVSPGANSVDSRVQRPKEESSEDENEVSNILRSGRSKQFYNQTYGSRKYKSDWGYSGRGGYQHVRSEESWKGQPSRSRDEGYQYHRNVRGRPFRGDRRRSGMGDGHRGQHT
Outline: as §1

UniProt Q02040 = biological target: T6, UniProt Q02040
T6 sequence (whole entry): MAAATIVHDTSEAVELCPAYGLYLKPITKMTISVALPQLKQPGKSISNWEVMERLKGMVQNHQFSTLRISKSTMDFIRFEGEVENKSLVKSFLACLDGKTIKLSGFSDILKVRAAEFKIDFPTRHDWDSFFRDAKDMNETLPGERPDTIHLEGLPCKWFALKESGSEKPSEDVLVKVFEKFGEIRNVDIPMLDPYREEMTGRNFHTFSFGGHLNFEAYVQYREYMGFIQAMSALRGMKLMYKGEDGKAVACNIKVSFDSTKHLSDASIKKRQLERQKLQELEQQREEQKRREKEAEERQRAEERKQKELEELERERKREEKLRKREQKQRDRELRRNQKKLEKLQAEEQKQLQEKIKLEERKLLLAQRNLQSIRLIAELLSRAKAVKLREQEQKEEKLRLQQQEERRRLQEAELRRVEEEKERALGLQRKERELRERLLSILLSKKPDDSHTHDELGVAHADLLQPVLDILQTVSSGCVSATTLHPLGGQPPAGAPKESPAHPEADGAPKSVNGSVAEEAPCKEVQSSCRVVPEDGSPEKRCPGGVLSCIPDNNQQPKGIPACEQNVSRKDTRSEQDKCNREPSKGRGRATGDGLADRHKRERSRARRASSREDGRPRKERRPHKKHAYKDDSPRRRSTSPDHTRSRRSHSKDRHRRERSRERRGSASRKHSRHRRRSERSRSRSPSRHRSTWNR
Outline: as §1

SMILES: Nc1ncnc2c1ncn2[C@@H]1O[C@H](COP(=O)(O)OP(=O)(O)NP(=O)(O)O)[C@@H](O)[C@H]1O [adenylyl imidodiphosphate]
- NP40-soluble protein abundance (ARHGAP1; concentration: 1mM): 0.969 ± 0.027
- NP40-soluble protein abundance (ARHGAP1; concentration: 2mM): 0.973 ± 0.021
- NP40-soluble protein abundance (ARHGAP1; concentration: 4mM): 0.939 ± 0.043
- NP40-soluble protein abundance (ARHGAP1; concentration: 6mM): 0.919 ± 0.013
- NP40-soluble protein abundance (ARHGAP1; concentration: 8mM): 0.885 ± 0.04
- NP40-soluble protein abundance (ARHGAP1; concentration: 10mM): 0.917 ± 0.034
- NP40-soluble protein abundance (DR1; concentration: 1mM): 0.95 ± 0.042
- NP40-soluble protein abundance (DR1; concentration: 2mM): 0.965 ± 0.052
- NP40-soluble protein abundance (DR1; concentration: 4mM): 0.904 ± 0.059
- NP40-soluble protein abundance (DR1; concentration: 6mM): 0.846 ± 0.014
- NP40-soluble protein abundance (DR1; concentration: 8mM): 0.815 ± 0.042
- NP40-soluble protein abundance (DR1; concentration: 10mM): 0.827 ± 0.091
- NP40-soluble protein abundance (EIF4G2; concentration: 1mM): 1.03 ± 0.015
- NP40-soluble protein abundance (EIF4G2; concentration: 2mM): 1.07 ± 0.043
- NP40-soluble protein abundance (EIF4G2; concentration: 4mM): 1.06 ± 0.0056
- NP40-soluble protein abundance (EIF4G2; concentration: 6mM): 1.12 ± 0.03
- NP40-soluble protein abundance (EIF4G2; concentration: 8mM): 1.11 ± 0.04
- NP40-soluble protein abundance (EIF4G2; concentration: 10mM): 1.14 ± 0.074
- NP40-soluble protein abundance (PURA; concentration: 1mM): 0.98 ± 0.051
- NP40-soluble protein abundance (PURA; concentration: 2mM): 0.976 ± 0.1
- NP40-soluble protein abundance (PURA; concentration: 4mM): 0.979 ± 0.062
- NP40-soluble protein abundance (PURA; concentration: 6mM): 1.08 ± 0.14
- NP40-soluble protein abundance (PURA; concentration: 8mM): 1.05 ± 0.098
- NP40-soluble protein abundance (PURA; concentration: 10mM): 1.11 ± 0.044
- NP40-soluble protein abundance ([1]; concentration: 1mM): 1.01 ± 0.016
- NP40-soluble protein abundance ([1]; concentration: 2mM): 1.05 ± 0.045
- NP40-soluble protein abundance ([1]; concentration: 4mM): 1.063 ± 0.0053
- NP40-soluble protein abundance ([1]; concentration: 6mM): 1.01 ± 0.03
- NP40-soluble protein abundance ([1]; concentration: 8mM): 0.995 ± 0.032
- NP40-soluble protein abundance ([1]; concentration: 10mM): 1.03 ± 0.049
- NP40-soluble protein abundance (UniProt Q02040; concentration: 1mM): 1.04 ± 0.03
- NP40-soluble protein abundance (UniProt Q02040; concentration: 2mM): 1.03 ± 0.034
- NP40-soluble protein abundance (UniProt Q02040; concentration: 4mM): 1.04 ± 0.056
- NP40-soluble protein abundance (UniProt Q02040; concentration: 6mM): 1.1 ± 0.035
- NP40-soluble protein abundance (UniProt Q02040; concentration: 8mM): 1.1 ± 0.035
- NP40-soluble protein abundance (UniProt Q02040; concentration: 10mM): 1.09 ± 0.031
